Assay results as given in PubChem BioAssay (NCATS).
The inconclusive results got no clear call from the source; some entries with a clear call stand among them for comparison. Where the call is inconclusive, the potency comes from a doubtful curve fit. Activity calls are given as the source filed them. Calls follow the shape of the dose curve; as a rule, active = well fitted inhibition curve with a large enough effect; inconclusive = small, poorly fitted or top-dose-only effect; inactive = no such curve, though single readings can be large or run the other way.
% is scaled to controls: 0 for no effect and ±100 for the full control effect; potency is read from the fitted curve at half-maximal effect.

The chains behind the UniProt entries cited, without tags or fusion partners.
UniProt P05177, whole entry, looked up: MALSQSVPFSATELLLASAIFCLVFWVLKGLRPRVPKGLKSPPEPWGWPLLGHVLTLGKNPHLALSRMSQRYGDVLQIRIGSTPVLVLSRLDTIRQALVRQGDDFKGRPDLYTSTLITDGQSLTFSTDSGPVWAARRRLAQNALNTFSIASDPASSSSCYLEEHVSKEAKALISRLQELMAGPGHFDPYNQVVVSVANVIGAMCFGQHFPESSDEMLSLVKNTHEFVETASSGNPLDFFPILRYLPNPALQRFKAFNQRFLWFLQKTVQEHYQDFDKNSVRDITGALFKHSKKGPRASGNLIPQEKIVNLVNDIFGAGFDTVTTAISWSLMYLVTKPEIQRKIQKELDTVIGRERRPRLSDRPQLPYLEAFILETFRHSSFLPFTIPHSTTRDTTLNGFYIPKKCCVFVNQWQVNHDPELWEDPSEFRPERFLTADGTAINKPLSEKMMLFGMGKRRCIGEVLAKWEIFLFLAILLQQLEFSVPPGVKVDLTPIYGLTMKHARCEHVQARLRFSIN

Each compound was assayed against Cytochrome P450 1A2 (Homo sapiens) (UniProt P05177) (assay: qHTS for inhibitors of CYPIA2 against the NCATS DSHEA and TCM libraries (AID 1919976;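 as to activity change, negative = inhibition: light from luciferin formed by CYP1A2 from a pro-luciferin substrate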)). Conditions: recombinant CYP1A2 enzyme activity, luminescence; series mostly up to 37 µM; activity change, negative = inhibition: at the top concentration.
Source text: Assay Development and Screening Technology Laboratory (ADST)
National Center for Advancing Translational Sciences (NCATS), Rockville, MD
National Institute of Health (NIH), Bethesda, Maryland
Dietary Supplements and Natural Products have minor oversight of their safety and efficacy. We assembled a collection of Dietary Supplements and Natural Products (DSNP) as well as Traditional Chinese Medicinal (TCM) Plant extracts, which were screened against an in vitro panel of assays, including a liver cytochrome p450 enzyme panel, CAR/PXR signaling pathways, and P-gp transporter assays, to assess their activity. This pipeline facilitated the interrogation of Natural Product-Drug Interaction (NaPDI) through prominent metabolizing pathways. In addition, we compared the activity profiles of the DSNP/TCM substances with those of an approved drug collection. Many of the approved drugs have well-annotated mechanisms of action (MOA) while the MOAs for most of the DSNP and TCM samples remain unknown. Based on the premise that compounds with similar activity profiles tend to share similar targets or MOA, we clustered the library activity profiles to identify overlap with the NCATS Pharmaceutical Collection to predict the MOAs of the DSNP/TCM substances. Overall, we highlight four significant bioactivity profiles (measured by p-values) as examples of this prediction. To assess broad cytotoxicity, we employed screening against a HepG2 cell line. In addition, transporter-mediated drug interactions are utilized in the characterization of DDIs using a P-glycoprotein (P-gp) assays. To profile potential P-gp activity, a differential cell viability was measured against two cell lines: a parental KB-3-1 human cervical adenocarcinoma cell line and the drug-resistant subline KB-8-5-11 that overexpresses P-gp.
To this end, we profiled both collections for potential CAR and/or PXR activity, employing a previously published 1536-well qHTS assay.
[1] Lee TD, et al. A High-Throughput Screen of a Library of Therapeutics Identifies Cytotoxic Substrates of P-glycoprotein. Mol Pharmacol. Nov 2019;96(5):629-640. doi:10.1124/mol.119.115964
PROTOCOL TABLE (as described by Inglese J, Shamu CE and Guy RK. 2007)
SEQUENCE No. (e.g., 1, 2, 3, etc.); […] (e.g., Cells, Incubation, Reagent, etc.); VALUE; DESCRIPTION.
1; Reagent; 2 uL; cytochrome P450 enzyme and luciferin substrate or buffer only, white solid-bottom Greiner plate.
2; Compounds and control; 16 nL; Kalypsis pintool (Wako USA) equipped with a 1536-well pin head to transfer to the assay plates.
3; Incubation; 15 min; room temperature.
4; Reagent; 2 uL; nicotinamide adenine dinucleotide phosphate (NADPH).
5; Incubation; 30 - 45 min; room temperature in the dark.
6; Reagent; 4 uL; P450-Glo assay detection reagent.
7; Centrifuge; 1000 RPM; 15 seconds.
8; Incubation; 30 min; room temperature.
9; Read; Luminescence; ViewLux plate reader.
NOTES (numbers refer to Sequence numbers above)
1. A 2 uL mixture of corresponding enzymes and luciferin substrate (final concentrations CYP enzyme-specific and pro-luciferin substrate-specific) or minus-enzyme (assay buffer conditions supplied by the manufacturer for respective enzyme isoform; typically, 100 mM KPO4) and luciferin substrate were dispensed using a BioRAPTR FRD (Beckman Coulter, Brea, CA) into columns of a 1536-well white solid-bottom medium binding plate (Greiner Bio-One, Monroe, NC). Five isoforms of cytochrome P450 were used (CYP1A2, CYP2C9, CYP2C19, CYP2D6, and CYP3A4).
2. […] Intraplate controls furafylline (CYP1A2), sulfaphenazole (CYP2C9), ketoconazole (CYP2C19), quinidine (CYP2D6), and ketoconazole (CYP3A4) were used correspondingly.
3. Assay plates were incubated at room temperature for 15 min.
4-5. […]
For `CCCCCCCCCCCC(=O)OCC(O)CO` (stereo not given), the Potency was inconclusive: 28.2 µM [inhibitor, partial curve]. With `C=C1C[C@@]23CC[C@H]4[C@@](C)(CCC[C@@]4(C)C(=O)OC4OC(CO)C(O)C(O)C4O)[C@@H]2CC[C@]1(OC1OC(CO)C(O)C(O)C1OC1OC(CO)C(O)C(O)C1O)C3` (stereo not given in full) the “activity change, negative = inhibition” value was inactive: -19.4%. For `Nc1nc2ncc(CNc3ccc(C(=O)N[C@@H](CCC(=O)O)C(=O)O)cc3)nc2c(=O)[nH]1`, the Potency was inconclusive: 3.55 µM [inhibitor, full curve]. For `CCCCCCCCCCCCCCCC(=O)O`, the Potency was inconclusive: 28.2 µM [inhibitor, partial curve, poor fit]. `CC(C)=CCC/C(C)=C/CC/C(C)=C/CC/C(C)=C/CC1=C(C)C(=O)c2ccccc2C1=O` was tested, and the “activity change, negative = inhibition” value was inactive: -18%. For `O=C(/C=C/c1ccc(O)c(O)c1)O[C@@H]1C[C@@](OC(=O)/C=C/c2ccc(O)c(O)c2)(C(=O)O)C[C@@H](O)[C@@H]1O`, the Potency was inconclusive: 25.1 µM [inhibitor, partial curve]. `Cc1ccc(C(C)C)c(O)c1` was tested, and the Potency was inconclusive: 25.1 µM [inhibitor, partial curve]. For `C[C@H]1[C@H](C)CC[C@]2(C(=O)O)CC[C@]3(C)C(=CC[C@@H]4[C@@]5(C)C[C@@H](O)[C@H](O)[C@@](C)(CO)[C@@H]5CC[C@]43C)[C@H]12`, the “activity change, negative = inhibition” value was inactive: -9.54%. For `C[S+](CC[C@H](N)C(=O)O)C[C@H]1O[C@@H](n2cnc3c(N)ncnc32)[C@H](O)[C@@H]1O` (stereo not given in full), the Potency was inconclusive: 7.08 µM [inhibitor, full curve]. For `CC(=O)O[C@@H]1C[C@@H](C)[C@](O)(CCC2=CC(=O)OC2)[C@@]2(C)CCCC(C)(C)C12` (stereo not given in full), the Potency was active: 3.98 µM.
